Experimental data: PubChem BioAssay AID1224830 (NIAID, 2016)

Purpose: 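Host factors that control LPS-induced TNF expression in human macrophages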 (primary screen)
Cells: human THP-1 monocytic leukaemia cells, TNF dual-luciferase reporter clone, PMA-differentiated to macrophage-like cells
Reagent: siRNA pool against human genes, 50 nM
Duration: LPS for 4 h, given about 3 days after siRNA transfection
Challenge: bacterial LPS (TLR4 ligand), 10 ng/ml
Detection: 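Ratio of firefly to renilla light, scaled to the plate median and expressed as a robust z-score per replicate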
Scale: TNF reporter robust z-score: higher = stronger TNF reporter response to LPS
Hit rule: 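a well is active when its z-score exceeds 2.8 or falls below -1.5; control wells carry no call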
The whole screen tested about 18,000 reagents; this is an unselected part. About 2,900 of all reagents (16%) were called active. 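Calls are made per well; low scores hint the gene aids the LPS response, high scores that it dampens it.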 Repeated entries: four replicate wells of each siRNA pool.

no.	target gene	TNF reporter robust z-score	activity call
1	RNF13	1.5	inactive
2	RNF13	2.12	inactive
3	RNF13	1.44	inactive
4	RNF13	2.03	inactive
5	RAP2A	-1.06	inactive
6	RAP2A	-0.14	inactive
7	RAP2A	-0.97	inactive
8	RAP2A	-0.4	inactive
9	SERPINI1	-0.09	inactive
10	SERPINI1	-0.47	inactive
11	SERPINI1	0.43	inactive
12	SERPINI1	-0.16	inactive
13	TCF21	-0.45	inactive
14	TCF21	-0.19	inactive
15	TCF21	0.09	inactive
16	TCF21	0.04	inactive
17	OR2C1	-0.01	inactive
18	OR2C1	6.92	active
19	OR2C1	-0.31	inactive
20	OR2C1	1.75	inactive
21	SLC6A12	-0.15	inactive
22	SLC6A12	0.19	inactive
23	SLC6A12	-0.53	inactive
24	SLC6A12	0.29	inactive
25	MAST1	-1.18	inactive
26	MAST1	0.27	inactive
27	MAST1	-0.87	inactive
28	MAST1	0.04	inactive
29	SUPT20H	1.54	inactive
30	SUPT20H	2.97	active
31	SUPT20H	0.58	inactive
32	SUPT20H	1.3	inactive
33	SLC39A14	0.16	inactive
34	SLC39A14	-0.26	inactive
35	SLC39A14	-0.21	inactive
36	SLC39A14	-0.41	inactive
37	AEBP2	-0.98	inactive
38	AEBP2	-0.62	inactive
39	AEBP2	-0.5	inactive
40	AEBP2	2.31	inactive
41	PRKX	-1.44	inactive
42	PRKX	-1.71	active
43	PRKX	-1.41	inactive
44	PRKX	-1.69	active
45	CDK19	-1.08	inactive
46	CDK19	-0.15	inactive
47	CDK19	-0.25	inactive
48	CDK19	0.35	inactive
49	MXD1	0.23	inactive
50	MXD1	-0.1	inactive
51	MXD1	1.15	inactive
52	MXD1	0.25	inactive

11 successive entries already listed:
no.	target gene	TNF reporter robust z-score	activity call
12	SERPINI1	-0.16	inactive
13	TCF21	-0.45	inactive
14	TCF21	-0.19	inactive
15	TCF21	0.09	inactive
16	TCF21	0.04	inactive
17	OR2C1	-0.01	inactive
18	OR2C1	6.92	active
19	OR2C1	-0.31	inactive
20	OR2C1	1.75	inactive
21	SLC6A12	-0.15	inactive
22	SLC6A12	0.19	inactive

The results go on.
no.	target gene	TNF reporter robust z-score	activity call
53	ATP10A	-0.21	inactive
54	ATP10A	0.97	inactive
55	ATP10A	-0.31	inactive
56	ATP10A	0.38	inactive
57	PLAC8L1	-1.25	inactive
58	PLAC8L1	-0.98	inactive
59	PLAC8L1	0.32	inactive
60	PLAC8L1	-0.49	inactive
61	LRCH2	0.52	inactive
62	LRCH2	0.1	inactive
63	LRCH2	-0.33	inactive
64	LRCH2	0.83	inactive
65	ITFG1	0.56	inactive
66	ITFG1	0.84	inactive
67	ITFG1	0.48	inactive
68	ITFG1	0.47	inactive
69	CLU	-0.49	inactive
70	CLU	-0.26	inactive
71	CLU	-0.39	inactive
72	CLU	0.32	inactive
73	TIGD2	0.59	inactive
74	TIGD2	0.44	inactive
75	TIGD2	-0.7	inactive
76	TIGD2	0.93	inactive
77	C5AR2	0.24	inactive
78	C5AR2	-0.12	inactive
79	C5AR2	-0.02	inactive
80	C5AR2	1.37	inactive
81	TOLLIP	-1.13	inactive
82	TOLLIP	-0.72	inactive
83	TOLLIP	0.61	inactive
84	TOLLIP	-1.41	inactive
85	ID2	-1.24	inactive
86	ID2	-0.74	inactive
87	ID2	-0.63	inactive
88	ID2	-0.53	inactive
89	ATF3	-1.53	active
90	ATF3	0.13	inactive
91	ATF3	-0.19	inactive
92	ATF3	-1.27	inactive
93	GP2	0.56	inactive
94	GP2	0.65	inactive
95	GP2	0.19	inactive
96	GP2	0.21	inactive
97	ELMO1	0.01	inactive
98	ELMO1	1.1	inactive
99	ELMO1	-0.09	inactive
100	ELMO1	0.63	inactive
101	URI1	-1.01	inactive
102	URI1	-0.68	inactive
103	URI1	-0.3	inactive
104	URI1	0.14	inactive
105	KRT86	-0.48	inactive
106	KRT86	-0.81	inactive
107	KRT86	-0.65	inactive
108	KRT86	-0.32	inactive
109	TMPRSS4	-0.13	inactive
110	TMPRSS4	0.19	inactive
111	TMPRSS4	0.58	inactive
112	TMPRSS4	0.56	inactive
113	STRN	0.39	inactive
114	STRN	0.51	inactive
115	STRN	0.46	inactive
116	STRN	-0.49	inactive
117	TRPS1	-1.51	active
118	TRPS1	-1.37	inactive
119	TRPS1	-1.02	inactive
120	TRPS1	-0.78	inactive
121	SVIL	-1.2	inactive
122	SVIL	-0.06	inactive
123	SVIL	-1.05	inactive
124	SVIL	-0.16	inactive
125	MYEF2	-0.29	inactive
126	MYEF2	0.41	inactive
127	MYEF2	0.16	inactive
128	MYEF2	0.12	inactive
129	TBC1D10B	0.53	inactive
130	TBC1D10B	0.58	inactive
131	TBC1D10B	0.96	inactive
132	TBC1D10B	0.69	inactive
133	PUF60	2.93	active
134	PUF60	2.72	inactive
135	PUF60	0.95	inactive
136	PUF60	2.7	inactive
137	BEX5	-0.59	inactive
138	BEX5	-0.09	inactive
139	BEX5	0.3	inactive
140	BEX5	-0.11	inactive
